Measurements taken from paper PMC9586981.

By UniProt entry, the sequences of proteins in these tests, tags left out.
UniProt Q8IYS0: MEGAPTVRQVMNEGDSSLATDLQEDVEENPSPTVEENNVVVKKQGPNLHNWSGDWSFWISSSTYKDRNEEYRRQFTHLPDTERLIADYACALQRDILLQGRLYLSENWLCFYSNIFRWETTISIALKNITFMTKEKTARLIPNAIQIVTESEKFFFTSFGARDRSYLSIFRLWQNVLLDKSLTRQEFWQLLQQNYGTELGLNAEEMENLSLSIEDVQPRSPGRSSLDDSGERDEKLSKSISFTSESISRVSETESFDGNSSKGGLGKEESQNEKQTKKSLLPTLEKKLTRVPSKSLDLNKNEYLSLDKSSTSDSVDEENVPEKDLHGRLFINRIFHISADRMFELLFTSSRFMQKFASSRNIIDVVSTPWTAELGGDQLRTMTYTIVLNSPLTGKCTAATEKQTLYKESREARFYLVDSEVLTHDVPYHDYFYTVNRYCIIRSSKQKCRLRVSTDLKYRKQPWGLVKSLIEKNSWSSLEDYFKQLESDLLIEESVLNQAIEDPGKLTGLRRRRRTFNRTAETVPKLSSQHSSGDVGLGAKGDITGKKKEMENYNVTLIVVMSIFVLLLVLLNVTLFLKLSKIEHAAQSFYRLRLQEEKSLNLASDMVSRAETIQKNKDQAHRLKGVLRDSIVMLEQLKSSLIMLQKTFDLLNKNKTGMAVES
UniProt Q14534: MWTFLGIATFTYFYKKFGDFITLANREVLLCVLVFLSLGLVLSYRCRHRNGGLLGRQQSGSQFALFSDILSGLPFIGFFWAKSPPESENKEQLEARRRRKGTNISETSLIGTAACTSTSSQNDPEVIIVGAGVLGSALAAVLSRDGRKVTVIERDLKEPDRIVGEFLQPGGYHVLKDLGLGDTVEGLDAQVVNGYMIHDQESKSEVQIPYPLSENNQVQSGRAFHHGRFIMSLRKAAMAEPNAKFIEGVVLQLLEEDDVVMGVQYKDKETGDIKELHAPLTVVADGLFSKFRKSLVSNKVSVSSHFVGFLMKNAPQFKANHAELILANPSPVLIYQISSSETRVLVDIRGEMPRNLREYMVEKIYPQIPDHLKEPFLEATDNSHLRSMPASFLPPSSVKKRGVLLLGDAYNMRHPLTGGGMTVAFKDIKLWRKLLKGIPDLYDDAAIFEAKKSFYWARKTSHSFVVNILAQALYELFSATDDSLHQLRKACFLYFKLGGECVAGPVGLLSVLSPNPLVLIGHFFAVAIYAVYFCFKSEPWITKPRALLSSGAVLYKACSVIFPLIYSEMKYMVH
UniProt Q676U5: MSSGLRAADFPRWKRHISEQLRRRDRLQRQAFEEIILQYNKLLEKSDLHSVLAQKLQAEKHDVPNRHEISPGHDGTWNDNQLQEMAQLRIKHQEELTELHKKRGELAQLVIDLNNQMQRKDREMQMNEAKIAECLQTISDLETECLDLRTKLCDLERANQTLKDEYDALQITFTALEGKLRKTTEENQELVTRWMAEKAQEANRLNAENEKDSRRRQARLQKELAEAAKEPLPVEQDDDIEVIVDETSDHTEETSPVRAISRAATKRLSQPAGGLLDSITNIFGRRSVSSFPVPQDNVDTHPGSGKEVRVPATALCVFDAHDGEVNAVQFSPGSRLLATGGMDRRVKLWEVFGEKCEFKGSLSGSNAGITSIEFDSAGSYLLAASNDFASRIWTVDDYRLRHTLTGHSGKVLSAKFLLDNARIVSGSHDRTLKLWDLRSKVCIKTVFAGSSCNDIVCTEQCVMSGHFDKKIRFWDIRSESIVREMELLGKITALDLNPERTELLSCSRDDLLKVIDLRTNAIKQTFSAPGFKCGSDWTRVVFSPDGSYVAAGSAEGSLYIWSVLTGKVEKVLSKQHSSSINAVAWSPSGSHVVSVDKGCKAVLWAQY

Target: GRAMD1C-EGFP (UniProt Q8IYS0)
Test: affinity purification with mass spectrometry; EGFP-tagged bait immunopurified with EGFP-TRAP (Chromotek) from stably transfected U2OS cells lysed in NP-40 lysis buffer (150 mM, 1.0% NP-40, 50 mM Tris-HCl pH 8.0); copurified proteins identified by LC-MS/MS; interactome compared to that of EGFP

binding	Substance
binds	SQLE (from UniProt Q14534 1-574) (enzyme)
no binding	ATG16L1 (from UniProt Q676U5 1-607)

These are yes or no findings as the source states them, for the method shown. In cells and extracts the contact can be indirect. These calls come from enrichment with a bait or labelling near it, and not all partners need be listed. No binding means not detected with the bait.
